Where a chain is given by its changes, count along the chain named. No constants are given. Whether binding was seen depends on the method and setting. Binding calls can cover weak binding; strength is not graded here.
B1: 115E2 chimeric anti-PD-L1 antibody (antibody, V domains shown)
VH: CQSVKESEGGLFKPMDTLTLTCTVSGIDLGSVAISWVRQAPGKGLEWIGTIGSSGSAYYASWAKSRSTITRNTNLNTVTLKMTSLTAADTASYFCAKEILYYGMDRWGPGTLVTVSS
VL: DVVMTQTPASVEASVGGTVTINCQASQSISSYLAWYQQKPGQPPKLLIYAASNLEPGVPSRFKGSGSGTEFTLTISDLECADAATYYCQATYGSTSSSDYGNAFGGGTKVVVVR
B2: 115C1 chimeric anti-PD-L1 antibody (antibody, V domains shown)
VH: CQSVKESEGGLFKPTDTLTLTCTVSGFSLSSVAVSWVRQAPGKGLEWIGTISYTGNTYYASWAKSRSTITRNTNENTVTLKMPSLTVADTATYFCAKEILYYGMDFWGPGTLVTVSS
VL: B1 VL with V2I, A9S, E12S, S14A, A50G, P56S, E70D, A90S, S97T
B3: 110H8 chimeric anti-PD-L1 antibody (antibody, V domains shown)
VH: B1 VH with M15T, G30S, A33S, K43N, S53A, S65R, R106L
VL: B1 VL with S14A, N22K, S31N, P43R, F71Y, S76T, A81D, Y87H, A90C
B4: 111H2 chimeric anti-PD-L1 antibody (antibody, V domains shown)
VH: QEQLVESGGGLVQPGGTLKLSCKGSGFDLSSNAMCWVRQAPGKGLEWIGCIVYGNCYYASWVNGRFTISSDNAQSSVDLQLNSLTAADTATYFCARDPAGSSVYTGGFNIWGPGTLVTVSS
VL: AIDMTQTPSPVSAAVGDTVTINCQASENIYSFLAWYQQKPGHSPKPLIYFASKLASGVPSRFKGSGSGTQFTLTISDVQCDDAATYYCQQTVSYKNADTAFGGGTKVVVVR
B5: 110B4 chimeric anti-PD-L1 antibody (antibody, V domains shown)
VH: CQSVKESEGGLFKPTDTLTLTCKVSGIDLSSISISWVRQAPGNGLEWIGVINSYGNTYYASWAKSRSTITRNTNENTVTLKMTSLTAADTATYFCAKEILYYGMDLWGPGTLVTVSS
VL: DVVMTQTPASVEAAVGGTVTIKCQASQSISSYFSWYQQKPGQRPKLLIYDASNLESGVPSRFKGSRSGTEYTLTISDLEWDDAATYYCQCTYGSTSSSNYGNNFGGGTKVVVVR
B6: 116F3 chimeric anti-PD-L1 antibody (antibody, V domains shown)
VH: B5 VH with K23T, S35G, V50T, N52S, S53D, Y54S, N56S, T57A, T92S
VL: DVVMTQTPASVSGAVGGTVTIKCQASEDIESYLAWYQQKPGQPPKLLIYAASNLEPGVPSRFKGSRSGTEYTLTITDLECDDAATYHCQATYGSTSSSDYGNAFGGGTKVVVVR
B7: 113F1 chimeric anti-PD-L1 antibody (antibody, V domains shown)
VH: B5 VH with K23T, S33A, V50T, N56S, K64Q, T92S, L106V
VL: B1 VL with S14A, N22K, P56S, F71Y, A81D, A90S, S94T, S97T

Molecular target: cynomolgus PD-L1-his (cynomolgus)
Experiment: binding ELISA, cynomolgus PD-L1-his coated

binding, binds:
B1, B2, B3, B4, B5, B6, B7

Reference: patent US20190106494A1 (published 2019)
